# Laboratory results: patent US20120101099A1, “HISTONE DEACETYLASE INHIBITORS” (ANTHEM BIOSCIENCES PRIVATE LIMITED, priority 2009, published 2012)
# Test system: PA-1
# Experiment: Cell proliferation assay (MTT)
# Assay type: cell-based
# Conditions: Homo sapiens, PA-1, read-out: Anti-proliferative activity (GI50) PA-1
# Method: Cells were seeded in a 96-well cell culture plates at a concentration of 10,000 cells per well and incubated at 37° C. in CO2 incubator.
# Twenty-four hours later cells were treated with different concentrations (100, 10, 1, 0.1, and 0.01 μM) of compound dissolved in DMSO and incubated for 48 hours. For To measurement, 24 hours after seeding the cells, 20 μL of 3-(4.5-dimethyl-2- thiazolyl)-2,5-diphenyl-2H-tetrazolium (MTT) solution per well was added to the T0 plate and incubated for 3 hours at 37° C. in a CO2 incubator.
# The plate containing cells and test compounds was treated similarly after 48 hours of incubation. After 3 hours of MTT addition, well contents were aspirated carefully followed by addition of 100 μL DMSO per well. Plates were agitated to ensure dissolution of the formazan crystals in DMSO and absorbance was read at 570 nm (A570). […] From the percentage growths a dose response curve was generated and GI50 values were interpolated from the growth curves.
structure (smiles),measurement,value
"O=C(CCCCCCC(=O)Nc1ccccc1)NO [SAHA, Suberoylanilide Hydroxamic Acid, reference compound]",GI50,300 ± 50 nM
